# Results published in article PMC7756940.
# Sequences of proteins named here, by UniProt entry; tags and fusion partners are left off.
# UniProt P29590: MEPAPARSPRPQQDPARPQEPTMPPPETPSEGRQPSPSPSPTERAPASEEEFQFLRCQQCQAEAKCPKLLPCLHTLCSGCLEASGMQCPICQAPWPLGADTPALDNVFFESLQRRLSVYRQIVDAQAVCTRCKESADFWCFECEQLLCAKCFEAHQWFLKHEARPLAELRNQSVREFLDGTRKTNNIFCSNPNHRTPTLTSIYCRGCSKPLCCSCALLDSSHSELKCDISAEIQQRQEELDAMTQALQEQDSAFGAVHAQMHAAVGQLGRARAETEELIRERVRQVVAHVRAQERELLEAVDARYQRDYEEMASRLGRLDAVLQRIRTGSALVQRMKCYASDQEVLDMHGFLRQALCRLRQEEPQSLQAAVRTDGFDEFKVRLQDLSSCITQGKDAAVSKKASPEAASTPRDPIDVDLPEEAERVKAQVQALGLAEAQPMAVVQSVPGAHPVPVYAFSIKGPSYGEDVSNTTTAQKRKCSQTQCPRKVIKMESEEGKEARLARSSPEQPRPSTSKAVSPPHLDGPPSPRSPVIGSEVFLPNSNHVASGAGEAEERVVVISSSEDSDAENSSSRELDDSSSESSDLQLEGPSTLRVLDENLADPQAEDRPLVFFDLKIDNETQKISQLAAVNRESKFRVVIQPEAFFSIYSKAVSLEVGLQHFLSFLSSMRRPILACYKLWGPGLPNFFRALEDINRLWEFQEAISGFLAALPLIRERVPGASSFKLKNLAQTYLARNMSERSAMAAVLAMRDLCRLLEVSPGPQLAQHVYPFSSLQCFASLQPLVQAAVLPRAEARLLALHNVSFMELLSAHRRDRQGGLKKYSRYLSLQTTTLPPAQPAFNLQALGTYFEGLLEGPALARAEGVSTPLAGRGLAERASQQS
# UniProt P46937: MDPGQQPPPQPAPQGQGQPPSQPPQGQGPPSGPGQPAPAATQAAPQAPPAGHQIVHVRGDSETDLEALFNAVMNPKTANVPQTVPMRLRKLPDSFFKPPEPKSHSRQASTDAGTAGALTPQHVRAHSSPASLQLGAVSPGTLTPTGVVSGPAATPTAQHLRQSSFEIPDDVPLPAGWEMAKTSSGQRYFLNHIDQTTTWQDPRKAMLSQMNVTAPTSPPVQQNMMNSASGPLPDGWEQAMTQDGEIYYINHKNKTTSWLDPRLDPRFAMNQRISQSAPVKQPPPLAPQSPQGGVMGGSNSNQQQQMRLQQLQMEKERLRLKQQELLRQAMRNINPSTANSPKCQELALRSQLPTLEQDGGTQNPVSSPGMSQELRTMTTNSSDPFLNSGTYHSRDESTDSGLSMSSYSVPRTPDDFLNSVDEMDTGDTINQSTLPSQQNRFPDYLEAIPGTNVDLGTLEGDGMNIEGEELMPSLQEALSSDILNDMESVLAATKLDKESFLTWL
# Results are given in words; binding and its absence hold for the method and conditions named. In cells and extracts the contact can be indirect. Some results given as binding are weak or reduced against the parent protein; the word gives no strength.
# Target: PML (human (endogenous in KYSE-450)) (UniProt P29590)
# Test: co-IP; KYSE-450 cell lysate (Pierce IP lysis buffer); mouse anti-PML mAb with protein G beads, 4 C, 16 h; beads washed four times with ten-fold diluted urea buffer; western blot
substance,measurement,value
YAP (from UniProt P46937 1-504),binding,binds
